From the supplement of paper PMC8728848
Some of the results follow.

How the values were obtained:
Test in all cases: glycan array binding signal (z-score within array); higher = stronger binding
Settings in all cases: glycan notation: IUPAC condensed, linker removed
[1] = target: GlcNAc(a1-6)Gal(b1-4)GlcNAc
Procedure, shortened: (§1)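 From the Consortium for Functional Glycomics database, 3228 arrays were curated, keeping only those whose protein sequence was available. Binding is given as a within-array Z-score averaged across arrays sharing a protein sequence and across linkers. Negative Z-scores can be read as non-binding.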

[2] = target: GlcNAc(b1-2)Gal(b1-3)GalNAc
Procedure, shortened: as §1

[3] = target: GlcNAc(b1-2)Man(a1-3)[GlcNAc(b1-2)Man(a1-6)]Man(b1-4)GlcNAc(b1-4)GlcNAc
Procedure, shortened: as §1

[4] = target: GlcNAc(b1-2)Man(a1-3)[GlcNAc(b1-2)Man(a1-6)]Man(b1-4)GlcNAc(b1-4)[Fuc(a1-6)]GlcNAc
Procedure, shortened: as §1

[5] = target: GlcNAc(b1-2)Man(a1-3)[GlcNAc(b1-4)][GlcNAc(b1-2)Man(a1-6)]Man(b1-4)GlcNAc(b1-4)GlcNAc
Procedure, shortened: as §1

[6] = target: GlcNAc(b1-2)Man(a1-3)[GlcNAc(b1-4)][GlcNAc(b1-2)Man(a1-6)]Man(b1-4)GlcNAc(b1-4)[Fuc(a1-6)]GlcNAc
Procedure, shortened: as §1

[7] = target: GlcNAc(b1-2)[GlcNAc(b1-4)]Man(a1-3)[GlcNAc(b1-2)Man(a1-6)]Man(b1-4)GlcNAc(b1-4)GlcNAc
Procedure, shortened: as §1

[8] = target: GlcNAc(b1-2)[GlcNAc(b1-4)]Man(a1-3)[GlcNAc(b1-4)][GlcNAc(b1-2)Man(a1-6)]Man(b1-4)GlcNAc(b1-4)GlcNAc
Procedure, shortened: as §1

[9] = target: GlcNAc(b1-2)[GlcNAc(b1-4)]Man(a1-3)[GlcNAc(b1-4)][GlcNAc(b1-2)[GlcNAc(b1-6)]Man(a1-6)]Man(b1-4)GlcNAc(b1-4)GlcNAc
Procedure, shortened: as §1

[10] = target: GlcNAc(b1-2)[GlcNAc(b1-4)]Man(a1-3)[GlcNAc(b1-4)][GlcNAc(b1-2)[GlcNAc(b1-6)]Man(a1-6)]Man(b1-4)GlcNAc(b1-4)[Fuc(a1-6)]GlcNAc
Procedure, shortened: as §1

[11] = target: GlcNAc(b1-2)[GlcNAc(b1-6)]Man(a1-6)[GlcNAc(b1-2)Man(a1-3)]Man(b1-4)GlcNAc(b1-4)GlcNAc
Procedure, shortened: as §1

[12] = target: GlcNAc(b1-2)[GlcNAc(b1-6)]Man(a1-6)[GlcNAc(b1-2)Man(a1-3)]Man(b1-4)GlcNAc(b1-4)[Fuc(a1-6)]GlcNAc
Procedure, shortened: as §1

[13] = target: GlcNAc(b1-2)[GlcNAc(b1-6)]Man(a1-6)[GlcNAc(b1-4)][GlcNAc(b1-2)Man(a1-3)]Man(b1-4)GlcNAc(b1-4)GlcNAc
Procedure, shortened: as §1

[14] = target: GlcNAc(b1-3)Fuc
Procedure, shortened: as §1

[15] = target: GlcNAc(b1-3)Gal
Procedure, shortened: as §1

[16] = target: GlcNAc(b1-3)Gal(b1-3)GalNAc
Procedure, shortened: as §1

[17] = target: GlcNAc(b1-3)Gal(b1-4)Glc
Procedure, shortened: as §1

[18] = target: GlcNAc(b1-3)Gal(b1-4)GlcNAc
Procedure, shortened: as §1

[19] = target: GlcNAc(b1-3)Gal(b1-4)GlcNAc(b1-2)Man(a1-3)[GlcNAc(b1-3)Gal(b1-4)GlcNAc(b1-2)Man(a1-6)]Man(b1-4)GlcNAc(b1-4)GlcNAc
Procedure, shortened: as §1

[20] = target: GlcNAc(b1-3)Gal(b1-4)GlcNAc(b1-2)Man(a1-3)[GlcNAc(b1-3)Gal(b1-4)GlcNAc(b1-2)Man(a1-6)]Man(b1-4)GlcNAc(b1-4)[Fuc(a1-6)]GlcNAc
Procedure, shortened: as §1

[21] = target: GlcNAc(b1-3)Gal(b1-4)GlcNAc(b1-2)[GlcNAc(b1-3)Gal(b1-4)GlcNAc(b1-6)]Man(a1-6)[GlcNAc(b1-3)Gal(b1-4)GlcNAc(b1-2)Man(a1-3)]Man(b1-4)GlcNAc(b1-4)GlcNAc
Procedure, shortened: as §1

[22] = target: GlcNAc(b1-3)Gal(b1-4)GlcNAc(b1-3)Gal(b1-4)GlcNAc
Procedure, shortened: as §1

[23] = target: GlcNAc(b1-3)Gal(b1-4)GlcNAc(b1-3)Gal(b1-4)GlcNAc(b1-2)Man(a1-3)[GlcNAc(b1-3)Gal(b1-4)GlcNAc(b1-3)Gal(b1-4)GlcNAc(b1-2)Man(a1-6)]Man(b1-4)GlcNAc(b1-4)GlcNAc
Procedure, shortened: as §1

[24] = target: GlcNAc(b1-3)Gal(b1-4)GlcNAc(b1-3)Gal(b1-4)GlcNAc(b1-2)Man(a1-3)[GlcNAc(b1-3)Gal(b1-4)GlcNAc(b1-3)Gal(b1-4)GlcNAc(b1-2)Man(a1-6)]Man(b1-4)GlcNAc(b1-4)[Fuc(a1-6)]GlcNAc
Procedure, shortened: as §1

[25] = target: GlcNAc(b1-3)Gal(b1-4)GlcNAc(b1-3)Gal(b1-4)GlcNAc(b1-2)[GlcNAc(b1-3)Gal(b1-4)GlcNAc(b1-3)Gal(b1-4)GlcNAc(b1-6)]Man(a1-6)[GlcNAc(b1-3)Gal(b1-4)GlcNAc(b1-3)Gal(b1-4)GlcNAc(b1-2)Man(a1-3)]Man(b1-4)GlcNAc(b1-4)[Fuc(a1-6)]GlcNAc
Procedure, shortened: as §1

[26] = target: GlcNAc(b1-3)Gal(b1-4)GlcNAc(b1-3)Gal(b1-4)GlcNAc(b1-3)Gal(b1-4)GlcNAc(b1-2)Man(a1-3)[GlcNAc(b1-3)Gal(b1-4)GlcNAc(b1-3)Gal(b1-4)GlcNAc(b1-3)Gal(b1-4)GlcNAc(b1-2)Man(a1-6)]Man(b1-4)GlcNAc(b1-4)GlcNAc
Procedure, shortened: as §1

[27] = target: GlcNAc(b1-3)Gal(b1-4)GlcNAc(b1-3)Gal(b1-4)GlcNAc(b1-3)Gal(b1-4)GlcNAc(b1-2)Man(a1-3)[GlcNAc(b1-3)Gal(b1-4)GlcNAc(b1-3)Gal(b1-4)GlcNAc(b1-3)Gal(b1-4)GlcNAc(b1-2)Man(a1-6)]Man(b1-4)GlcNAc(b1-4)[Fuc(a1-6)]GlcNAc
Procedure, shortened: as §1

[28] = target: GlcNAc(b1-3)Gal(b1-4)GlcNAc(b1-3)Gal(b1-4)GlcNAc(b1-3)Gal(b1-4)GlcNAc(b1-2)[GlcNAc(b1-3)Gal(b1-4)GlcNAc(b1-3)Gal(b1-4)GlcNAc(b1-3)Gal(b1-4)GlcNAc(b1-6)]Man(a1-6)[GlcNAc(b1-3)Gal(b1-4)GlcNAc(b1-3)Gal(b1-4)GlcNAc(b1-3)Gal(b1-4)GlcNAc(b1-2)Man(a1-3)]Man(b1-4)GlcNAc(b1-4)[Fuc(a1-6)]GlcNAc
Procedure, shortened: as §1

[29] = target: GlcNAc(b1-3)Gal(b1-4)GlcNAc(b1-3)Gal(b1-4)GlcNAc(b1-3)Gal(b1-4)GlcNAc(b1-3)Gal(b1-4)GlcNAc(b1-2)Man(a1-3)[GlcNAc(b1-3)Gal(b1-4)GlcNAc(b1-3)Gal(b1-4)GlcNAc(b1-3)Gal(b1-4)GlcNAc(b1-3)Gal(b1-4)GlcNAc(b1-2)Man(a1-6)]Man(b1-4)GlcNAc(b1-4)GlcNAc
Procedure, shortened: as §1

[30] = target: GlcNAc(b1-3)Gal(b1-4)GlcNAc(b1-3)Gal(b1-4)GlcNAc(b1-3)Gal(b1-4)GlcNAc(b1-3)Gal(b1-4)GlcNAc(b1-2)Man(a1-3)[GlcNAc(b1-3)Gal(b1-4)GlcNAc(b1-3)Gal(b1-4)GlcNAc(b1-3)Gal(b1-4)GlcNAc(b1-3)Gal(b1-4)GlcNAc(b1-2)Man(a1-6)]Man(b1-4)GlcNAc(b1-4)[Fuc(a1-6)]GlcNAc
Procedure, shortened: as §1

[31] = target: GlcNAc(b1-3)Gal(b1-4)GlcNAc(b1-3)Gal(b1-4)GlcNAc(b1-3)Gal(b1-4)GlcNAc(b1-3)Gal(b1-4)GlcNAc(b1-2)[GlcNAc(b1-3)Gal(b1-4)GlcNAc(b1-3)Gal(b1-4)GlcNAc(b1-3)Gal(b1-4)GlcNAc(b1-3)Gal(b1-4)GlcNAc(b1-6)]Man(a1-6)[GlcNAc(b1-3)Gal(b1-4)GlcNAc(b1-3)Gal(b1-4)GlcNAc(b1-3)Gal(b1-4)GlcNAc(b1-3)Gal(b1-4)GlcNAc(b1-2)Man(a1-3)]Man(b1-4)GlcNAc(b1-4)[Fuc(a1-6)]GlcNAc
Procedure, shortened: as §1

[32] = target: GlcNAc(b1-3)Gal(b1-4)GlcNAc(b1-3)Gal(b1-4)GlcNAc(b1-3)GalNAc
Procedure, shortened: as §1

[33] = target: GlcNAc(b1-3)Gal(b1-4)GlcNAc(b1-3)GalNAc
Procedure, shortened: as §1

[34] = target: GlcNAc(b1-3)Gal(b1-4)GlcNAc(b1-3)[GlcNAc(b1-3)Gal(b1-4)GlcNAc(b1-3)]GalNAc
Procedure, shortened: as §1

[35] = target: GlcNAc(b1-3)Gal(b1-4)GlcNAc(b1-6)[Gal(b1-3)]GalNAc
Procedure, shortened: as §1

[36] = target: GlcNAc(b1-3)Gal(b1-4)GlcNAc(b1-6)[GlcNAc(b1-3)Gal(b1-3)]GalNAc
Procedure, shortened: as §1

[37] = target: GlcNAc(b1-3)Gal(b1-4)GlcNAc(b1-6)[GlcNAc(b1-3)]Gal(b1-4)GlcNAc
Procedure, shortened: as §1

B1: LlpA (Arthrobacter sp) (protein)
chain: MGSSHHHHHHSSGLVPRGSHMTLHPETALRPGAAATSPNSRYRLLYQTDGNLVLYGPDGPLWDSGTNGHGAGACIMQADGNLVLYGPNDEYVWDTETDNNPGSRLVIQDDGNAVIYRPDGSPLWATETCQPPGSADSHVLQSGSTLTPTHGIRSANGLYGLLYQTDGNLVFYGPDGPLWDSGTNGRGAGACIMQPDGNLVLYGPHDEYVWDTETDNNPGSRLVIQDDGNAVIYRPDGNPTWVTGTH
glycan array binding signal (z-score) [1]: -0.465
glycan array binding signal (z-score) [2]: -0.298
glycan array binding signal (z-score) [3]: -0.164
glycan array binding signal (z-score) [4]: 0.588
glycan array binding signal (z-score) [5]: -0.798
glycan array binding signal (z-score) [6]: -0.226
glycan array binding signal (z-score) [7]: -0.068
glycan array binding signal (z-score) [8]: 0.659
glycan array binding signal (z-score) [9]: -0.159
glycan array binding signal (z-score) [10]: -0.18
glycan array binding signal (z-score) [11]: -0.029
glycan array binding signal (z-score) [12]: 1.2
glycan array binding signal (z-score) [13]: -0.719
glycan array binding signal (z-score) [14]: -0.471
glycan array binding signal (z-score) [15]: -0.463
glycan array binding signal (z-score) [16]: 0.347
glycan array binding signal (z-score) [17]: 0.123
glycan array binding signal (z-score) [18]: 0.043
glycan array binding signal (z-score) [19]: 0.515
glycan array binding signal (z-score) [20]: 0.596
glycan array binding signal (z-score) [21]: 0.019
glycan array binding signal (z-score) [22]: -0.689
glycan array binding signal (z-score) [23]: 0.503
glycan array binding signal (z-score) [24]: 2.11
glycan array binding signal (z-score) [25]: 1.02
glycan array binding signal (z-score) [26]: 1.25
glycan array binding signal (z-score) [27]: 1.79
glycan array binding signal (z-score) [28]: 0.416
glycan array binding signal (z-score) [29]: 0.815
glycan array binding signal (z-score) [30]: 2.07
glycan array binding signal (z-score) [31]: 1.82
glycan array binding signal (z-score) [32]: 0.18
glycan array binding signal (z-score) [33]: 1.61
glycan array binding signal (z-score) [34]: 0.884
glycan array binding signal (z-score) [35]: -0.319
glycan array binding signal (z-score) [36]: 0.23
glycan array binding signal (z-score) [37]: -0.695
